US8324357
For part of these data: Negatives hold for the conditions tested. For part of these data: Protein sequences can lack the tags named with them. For part of these data: The direction of at least one scale is not stated here.

Chains of the proteins cited; added tags and fusions are not shown. Chains listed by the source or under a name are the forms on record and can include a tag or linker. Residues count along the entry.
UniProt P02769, 25-607: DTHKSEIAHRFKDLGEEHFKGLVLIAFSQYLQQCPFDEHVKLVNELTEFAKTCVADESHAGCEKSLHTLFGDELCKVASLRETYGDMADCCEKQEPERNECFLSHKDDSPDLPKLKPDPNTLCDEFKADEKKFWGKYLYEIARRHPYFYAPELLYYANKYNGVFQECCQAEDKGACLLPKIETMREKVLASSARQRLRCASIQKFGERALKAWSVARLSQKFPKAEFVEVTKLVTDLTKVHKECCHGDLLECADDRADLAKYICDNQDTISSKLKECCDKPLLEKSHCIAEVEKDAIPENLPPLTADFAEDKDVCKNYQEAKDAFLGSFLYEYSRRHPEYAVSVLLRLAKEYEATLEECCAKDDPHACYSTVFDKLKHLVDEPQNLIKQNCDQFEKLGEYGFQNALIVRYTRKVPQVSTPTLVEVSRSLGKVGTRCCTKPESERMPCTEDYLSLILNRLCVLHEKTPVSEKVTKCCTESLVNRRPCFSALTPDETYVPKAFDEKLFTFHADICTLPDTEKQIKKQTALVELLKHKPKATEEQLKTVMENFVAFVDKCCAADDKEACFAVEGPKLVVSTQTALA
VEGF/PlGF heterodimer (Homo sapiens), one chain, as listed by the source, chain 2 of 2: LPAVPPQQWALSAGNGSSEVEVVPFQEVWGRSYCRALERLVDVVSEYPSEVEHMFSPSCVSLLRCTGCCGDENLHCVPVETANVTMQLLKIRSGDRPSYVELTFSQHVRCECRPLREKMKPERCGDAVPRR
VEGF165 (Homo sapiens), one chain, as listed by the source: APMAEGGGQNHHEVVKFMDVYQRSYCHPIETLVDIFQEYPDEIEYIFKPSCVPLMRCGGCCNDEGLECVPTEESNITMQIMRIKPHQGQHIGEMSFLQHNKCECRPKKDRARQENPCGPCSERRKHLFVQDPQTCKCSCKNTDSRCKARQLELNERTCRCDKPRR
VEGF121 (Homo sapiens), one chain, as listed by the source: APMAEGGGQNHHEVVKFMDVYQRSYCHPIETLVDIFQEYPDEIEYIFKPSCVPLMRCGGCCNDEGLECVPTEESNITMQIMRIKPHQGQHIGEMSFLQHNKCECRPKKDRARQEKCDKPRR

Experiments:
VEGF165 (Homo sapiens) [1] = test: EMSA; settings: DNA 200 fmol annealed to RNA 100 fmol; purified recombinant protein; protein details: R&D Systems or USB; label: 32P; DNA:RNA hybrid; variant of RNA132; counted as no binding
[2] = test system: VEGF/PlGF heterodimer (Homo sapiens); test: competition with a labelled probe; settings: 10 fmol; no phase transition at 40 min; purified recombinant protein; protein details: R&D Systems or USB; dose not given here
VEGF121 (Homo sapiens) = test: competition with a labelled probe; settings: 10 fmol; no phase transition at 40 min; purified recombinant protein; protein details: R&D Systems or USB; dose not given here
VEGF165 (Homo sapiens) [3] = test: competition with a labelled probe; settings: reverses RVV-X inhibition at 3-30 fmol; coagulation complete within 40 min; purified recombinant protein; protein details: R&D Systems or USB; dose not given here
[4] = target: bovine serum albumin (BSA) (UniProt P02769); test: competition with a labelled probe; settings: 10 fmol; no phase transition at 40 min; purified native protein; dose not given here
endocrine gland VEGF = target: T1, endocrine gland VEGF (UniProt P58294); test: competition with a labelled probe; settings: 10 fmol; no phase transition at 40 min; purified recombinant protein; protein details: R&D Systems or USB; dose not given here
T1 sequence (looked up, limits assumed): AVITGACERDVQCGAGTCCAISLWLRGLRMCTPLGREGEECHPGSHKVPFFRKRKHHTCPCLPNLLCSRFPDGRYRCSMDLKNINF

Sequence	binding signal (% of RNA132 alone) (VEGF165 (Homo sapiens) [1])	functional effect of the aptamer [2]	functional effect of the aptamer (VEGF121 (Homo sapiens))	functional effect of the aptamer (VEGF165 (Homo sapiens) [3])	functional effect of the aptamer [4]	functional effect of the aptamer (endocrine gland VEGF)
GGGAGGGAAUCAGUGAAUGCUUAUACAUCCCUCCUUGAGCAGUCGAUUAGUUUCGACAGGAGGCUCAC [RNA132 annealed with DNA I (complement of 1-68)]	0	–	–	–	–	–
GGGAGGGAAUCAGUGAAUGCUUAUACAUCCCUCCUUGAGCAGUCGAUUAGUUUCGACAGGAGGCUCAC [RNA132]	–	not active	not active	active	not active	not active
